The target of assay [1] is T1, IL-22 binding protein isoform-1 (IL-22BPi1), C-terminally myc-FLAG-tagged (human) (UniProt Q969J5).
T1 sequence: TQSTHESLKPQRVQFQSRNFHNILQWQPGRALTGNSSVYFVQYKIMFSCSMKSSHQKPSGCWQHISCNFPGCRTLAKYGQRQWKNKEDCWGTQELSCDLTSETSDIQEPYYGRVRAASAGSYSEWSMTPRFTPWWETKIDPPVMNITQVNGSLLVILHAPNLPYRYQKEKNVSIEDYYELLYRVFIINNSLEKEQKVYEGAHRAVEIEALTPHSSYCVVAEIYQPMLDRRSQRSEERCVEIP
In words: co-IP; HEK293 transiently co-transfected with IL-22BPi1 or IL-22BPi2 and FLAG-tagged GRP94 truncation and deletion mutants, lysed after 24 h; Myc agarose to precipitate the IL-22BP isoform; immunoblot with KDEL and mouse or rabbit FLAG antibodies. On the technique in general: Immunoblotting shows a protein as a band on a membrane.

In assay [2] the target is T2, IL-22 binding protein isoform-2 (IL-22BPi2), C-terminally myc-FLAG-tagged (human) (UniProt Q969J5).
T2 sequence: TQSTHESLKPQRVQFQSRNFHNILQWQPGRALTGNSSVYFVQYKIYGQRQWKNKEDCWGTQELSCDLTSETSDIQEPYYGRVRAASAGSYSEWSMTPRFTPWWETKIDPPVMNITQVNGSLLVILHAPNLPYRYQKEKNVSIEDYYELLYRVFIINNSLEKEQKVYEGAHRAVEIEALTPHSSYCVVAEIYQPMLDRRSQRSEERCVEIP
The assay is described as above.

The values below come from PMC6302113.

No constants are given. Whether binding was seen depends on the method and setting. Binding seen in cells or lysates may run through a third protein. A result given as binding can be weak or reduced; the word gives no strength. Sequences can lack the tags named with a protein.

Consider “GRP94 C-terminal domain (CTD) mutant, FLAG-tagged (domain or fragment)”, for which the binding result in assay [1] and in assay [2] was “no binding” throughout.
On to “GRP94 N-terminal domain (NTD) mutant, FLAG-tagged (domain or fragment)”, for which the binding result in assay [1] and in assay [2] was “no binding” throughout.
For “GRP94 middle domain (MD) mutant, FLAG-tagged (domain or fragment)”, the binding entry in assay [1] and in assay [2] was “binds” throughout.
As for “ΔA-GRP94 mutant, FLAG-tagged (domain or fragment)”, the binding entry in assay [1] and in assay [2] was “binds” each time.
